PubChem BioAssay AID743121 – NCATS | 2013
Assay: 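Knock-downs that sensitise breast cancer cells to camptothecin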 (primary screen). Cells: MDA-MB-231 cells, a human breast cancer line. Reagents: single siRNA against human genes, 20 nM siRNA (0.8 pmol per well). Time to read-out: 120 h (drug added 48 h after transfection, read 72 h later). Treatment: camptothecin 20 nM (about EC30) for 72 h; vehicle 0.1% DMSO in parallel plates. Measured: 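Cell viability by ATP luminescence (CellTiter-Glo) as % of non-targeting siRNA wells, and the log2 ratio of viability without drug over viability with camptothecin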. Scale: log2 vehicle/camptothecin viability: higher = stronger sensitisation to camptothecin; viability with camptothecin: higher = more viable cells. Units: viability with camptothecin in % of control. Rule for the call: 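Active genes have an RSA gene-level p-value below 0.001, computed from the ratios of their separate siRNAs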.
Here is an unselected part of about 26,000 reagents. Of all reagents, 167 (0.63%) got an active call. 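Calls are per gene from RSA p-values that are not deposited; an individual active-marked siRNA can sensitise only weakly.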 The numbers tell different reagents against one gene apart. Not all columns of the deposit are shown.

After knock-down of IRAK2 (interleukin 1 receptor associated kinase 2) #1, the screen gave log2 vehicle/camptothecin viability -0.44; viability with camptothecin 111; inactive.
Knock-down of IRAK2 (interleukin 1 receptor associated kinase 2) #2 gave: log2 vehicle/camptothecin viability 0.111; viability with camptothecin 63.8; inactive.
IRAK2 (interleukin 1 receptor associated kinase 2) #3 gave log2 vehicle/camptothecin viability -0.626; viability with camptothecin 97.1; inactive.
IRAK2 (interleukin 1 receptor associated kinase 2) #4 gave log2 vehicle/camptothecin viability -0.548; viability with camptothecin 60.7; inactive.
Silencing of SALL2 (spalt like transcription factor 2) #1 came out at: log2 vehicle/camptothecin viability -0.00322; viability with camptothecin 45.4; inactive.
For SALL2 (spalt like transcription factor 2) #2, the entry reads log2 vehicle/camptothecin viability 0.0822; viability with camptothecin 65; inactive.
Against SALL2 (spalt like transcription factor 2) #3 the deposit lists log2 vehicle/camptothecin viability -0.188; viability with camptothecin 91.4; inactive.
For SALL2 (spalt like transcription factor 2) #4, the values are log2 vehicle/camptothecin viability -0.318; viability with camptothecin 91; inactive.
For UTS2R (urotensin 2 receptor) #1, the entry reads log2 vehicle/camptothecin viability -0.418; viability with camptothecin 104; inactive.
UTS2R (urotensin 2 receptor) #2 gave log2 vehicle/camptothecin viability 0.479; viability with camptothecin 37.5; inactive.
UTS2R (urotensin 2 receptor) #3 gave log2 vehicle/camptothecin viability -0.571; viability with camptothecin 86.9; inactive.
With knock-down of UTS2R (urotensin 2 receptor) #4 the results were log2 vehicle/camptothecin viability -0.142; viability with camptothecin 87.2; inactive.
With knock-down of GLA (galactosidase alpha) #1 the results were log2 vehicle/camptothecin viability -0.53; viability with camptothecin 48.7; inactive.
For GLA (galactosidase alpha) #2 the deposit lists log2 vehicle/camptothecin viability -0.114; viability with camptothecin 42.8; inactive.
Against GLA (galactosidase alpha) #3, the values are log2 vehicle/camptothecin viability -0.284; viability with camptothecin 86.9; inactive.
Silencing of GLA (galactosidase alpha) #4 gave: log2 vehicle/camptothecin viability -0.0455; viability with camptothecin 92.6; inactive.
FXR1 (FMR1 autosomal homolog 1) #1 gave log2 vehicle/camptothecin viability -0.153; viability with camptothecin 116; inactive.
After knock-down of FXR1 (FMR1 autosomal homolog 1) #2, the record shows log2 vehicle/camptothecin viability -0.0906; viability with camptothecin 73.3; inactive.
For FXR1 (FMR1 autosomal homolog 1) #3 the deposit lists log2 vehicle/camptothecin viability 0.263; viability with camptothecin 44.1; inactive.
For FXR1 (FMR1 autosomal homolog 1) #4, the entry reads log2 vehicle/camptothecin viability 0.00641; viability with camptothecin 50.1; inactive.
After knock-down of MAP3K8 (mitogen-activated protein kinase kinase kinase 8) #1, the record shows log2 vehicle/camptothecin viability -0.497; viability with camptothecin 92.2; inactive.
Knock-down of MAP3K8 (mitogen-activated protein kinase kinase kinase 8) #2 resulted in: log2 vehicle/camptothecin viability 0.123; viability with camptothecin 65.7; inactive.
With knock-down of MAP3K8 (mitogen-activated protein kinase kinase kinase 8) #3, the screen gave log2 vehicle/camptothecin viability -0.136; viability with camptothecin 32.2; inactive.
MAP3K8 (mitogen-activated protein kinase kinase kinase 8) #4 scored log2 vehicle/camptothecin viability -0.111; viability with camptothecin 103; inactive.

8 entries from above, arranged by “log2 vehicle/camptothecin viability”, lowest first:
UTS2R (urotensin 2 receptor) #3 | log2 vehicle/camptothecin viability: -0.571; viability with camptothecin: 86.9; Call: inactive
UTS2R (urotensin 2 receptor) #1 | log2 vehicle/camptothecin viability: -0.418; viability with camptothecin: 104; Call: inactive
SALL2 (spalt like transcription factor 2) #4 | log2 vehicle/camptothecin viability: -0.318; viability with camptothecin: 91; Call: inactive
SALL2 (spalt like transcription factor 2) #3 | log2 vehicle/camptothecin viability: -0.188; viability with camptothecin: 91.4; Call: inactive
UTS2R (urotensin 2 receptor) #4 | log2 vehicle/camptothecin viability: -0.142; viability with camptothecin: 87.2; Call: inactive
SALL2 (spalt like transcription factor 2) #1 | log2 vehicle/camptothecin viability: -0.00322; viability with camptothecin: 45.4; Call: inactive
SALL2 (spalt like transcription factor 2) #2 | log2 vehicle/camptothecin viability: 0.0822; viability with camptothecin: 65; Call: inactive
UTS2R (urotensin 2 receptor) #2 | log2 vehicle/camptothecin viability: 0.479; viability with camptothecin: 37.5; Call: inactive

Further entries follow:
CREBBP (CREB binding lysine acetyltransferase) #1 gave log2 vehicle/camptothecin viability 0.00564; viability with camptothecin 110; inactive.
After knock-down of CREBBP (CREB binding lysine acetyltransferase) #2, the screen gave log2 vehicle/camptothecin viability -0.202; viability with camptothecin 108; inactive.
For CREBBP (CREB binding lysine acetyltransferase) #3 the deposit lists log2 vehicle/camptothecin viability -0.264; viability with camptothecin 72.3; inactive.
Against CREBBP (CREB binding lysine acetyltransferase) #4 the deposit lists log2 vehicle/camptothecin viability 0.564; viability with camptothecin 35.7; inactive.
IL38 (interleukin 38) #1 showed log2 vehicle/camptothecin viability -0.592; viability with camptothecin 88.2; inactive.
Silencing of IL38 (interleukin 38) #2 gave: log2 vehicle/camptothecin viability -0.408; viability with camptothecin 41.8; inactive.
With knock-down of IL38 (interleukin 38) #3 the results were log2 vehicle/camptothecin viability -0.323; viability with camptothecin 73.8; inactive.
IL38 (interleukin 38) #4 scored log2 vehicle/camptothecin viability 0.136; viability with camptothecin 69.7; inactive.
PLD2 (phospholipase D2) #1 showed log2 vehicle/camptothecin viability -0.169; viability with camptothecin 113; inactive.
PLD2 (phospholipase D2) #2 scored log2 vehicle/camptothecin viability -0.00409; viability with camptothecin 18.3; inactive.
Knock-down of PLD2 (phospholipase D2) #3 came out at: log2 vehicle/camptothecin viability -0.458; viability with camptothecin 53.5; inactive.
Silencing of PLD2 (phospholipase D2) #4 came out at: log2 vehicle/camptothecin viability -0.209; viability with camptothecin 60.6; inactive.
Knock-down of CASP16P (caspase 16, pseudogene) #1 resulted in: log2 vehicle/camptothecin viability -0.0949; viability with camptothecin 85.1; inactive.
After knock-down of CASP16P (caspase 16, pseudogene) #2, the record shows log2 vehicle/camptothecin viability -0.497; viability with camptothecin 86.1; inactive.
Depletion of CASP16P (caspase 16, pseudogene) #3 came out at: log2 vehicle/camptothecin viability -0.308; viability with camptothecin 59.7; inactive.
Depletion of CASP16P (caspase 16, pseudogene) #4 gave: log2 vehicle/camptothecin viability -0.24; viability with camptothecin 54.2; inactive.
HGF (hepatocyte growth factor) #1 showed log2 vehicle/camptothecin viability -0.359; viability with camptothecin 127; inactive.
Depletion of HGF (hepatocyte growth factor) #2 resulted in: log2 vehicle/camptothecin viability -0.0211; viability with camptothecin 90.3; inactive.
Depletion of HGF (hepatocyte growth factor) #3 gave: log2 vehicle/camptothecin viability 0.302; viability with camptothecin 46.5; inactive.
Against HGF (hepatocyte growth factor) #4, the entry reads log2 vehicle/camptothecin viability -0.331; viability with camptothecin 78.1; inactive.
Against AQP1 (aquaporin 1 (Colton blood group)) #1, the entry reads log2 vehicle/camptothecin viability -0.232; viability with camptothecin 42.2; inactive.
AQP1 (aquaporin 1 (Colton blood group)) #2 showed log2 vehicle/camptothecin viability -0.389; viability with camptothecin 21.2; inactive.
Against AQP1 (aquaporin 1 (Colton blood group)) #3 the deposit lists log2 vehicle/camptothecin viability -0.739; viability with camptothecin 28.6; inactive.
With knock-down of AQP1 (aquaporin 1 (Colton blood group)) #4, the screen gave log2 vehicle/camptothecin viability 0.0437; viability with camptothecin 73.6; inactive.
